# Results reported in the supplement of paper PMC6411743.
# Protein sequences, listed by entry. Tags and fused reporters are not part of them. Lines headed by an entry give the natural chain unless they say otherwise; changes in a name come on top.
# UniProt O14639: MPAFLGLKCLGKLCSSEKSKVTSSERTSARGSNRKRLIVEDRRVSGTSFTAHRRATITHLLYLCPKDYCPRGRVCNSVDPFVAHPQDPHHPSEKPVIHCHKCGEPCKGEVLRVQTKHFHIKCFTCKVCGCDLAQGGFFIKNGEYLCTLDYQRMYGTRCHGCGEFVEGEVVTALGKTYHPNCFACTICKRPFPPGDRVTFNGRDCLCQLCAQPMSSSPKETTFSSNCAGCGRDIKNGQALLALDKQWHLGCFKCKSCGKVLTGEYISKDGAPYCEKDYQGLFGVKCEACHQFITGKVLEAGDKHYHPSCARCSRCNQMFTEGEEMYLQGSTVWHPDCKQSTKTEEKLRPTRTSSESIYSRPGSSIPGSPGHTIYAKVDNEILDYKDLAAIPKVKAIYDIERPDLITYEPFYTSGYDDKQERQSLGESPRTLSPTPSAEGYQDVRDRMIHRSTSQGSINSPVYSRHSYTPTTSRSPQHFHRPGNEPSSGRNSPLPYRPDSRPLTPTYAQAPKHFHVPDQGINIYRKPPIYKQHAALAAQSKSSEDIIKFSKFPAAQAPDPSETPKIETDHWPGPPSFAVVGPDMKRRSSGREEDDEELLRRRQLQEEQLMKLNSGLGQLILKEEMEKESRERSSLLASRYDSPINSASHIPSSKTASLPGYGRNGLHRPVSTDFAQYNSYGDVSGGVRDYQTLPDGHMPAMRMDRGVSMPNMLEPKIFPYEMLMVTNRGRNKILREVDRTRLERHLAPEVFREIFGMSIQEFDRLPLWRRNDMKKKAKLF
# UniProt O43164: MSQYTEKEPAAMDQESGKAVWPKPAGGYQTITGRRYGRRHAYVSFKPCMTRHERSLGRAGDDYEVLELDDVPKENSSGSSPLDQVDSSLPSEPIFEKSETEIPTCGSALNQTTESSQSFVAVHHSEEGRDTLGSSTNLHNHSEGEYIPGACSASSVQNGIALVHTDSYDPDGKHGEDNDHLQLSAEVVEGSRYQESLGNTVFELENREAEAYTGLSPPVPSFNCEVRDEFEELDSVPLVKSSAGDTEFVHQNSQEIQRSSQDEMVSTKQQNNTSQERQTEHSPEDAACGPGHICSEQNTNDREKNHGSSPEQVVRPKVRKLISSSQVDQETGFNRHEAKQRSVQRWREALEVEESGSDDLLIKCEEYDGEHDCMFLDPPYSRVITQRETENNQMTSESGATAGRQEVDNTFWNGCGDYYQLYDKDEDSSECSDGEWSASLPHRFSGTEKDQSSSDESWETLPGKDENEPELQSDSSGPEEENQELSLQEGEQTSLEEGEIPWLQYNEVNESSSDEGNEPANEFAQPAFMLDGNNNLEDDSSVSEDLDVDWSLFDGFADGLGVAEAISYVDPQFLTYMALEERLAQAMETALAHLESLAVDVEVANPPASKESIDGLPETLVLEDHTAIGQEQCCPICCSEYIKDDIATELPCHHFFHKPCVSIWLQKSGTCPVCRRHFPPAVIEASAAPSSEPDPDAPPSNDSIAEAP
# UniProt O15270: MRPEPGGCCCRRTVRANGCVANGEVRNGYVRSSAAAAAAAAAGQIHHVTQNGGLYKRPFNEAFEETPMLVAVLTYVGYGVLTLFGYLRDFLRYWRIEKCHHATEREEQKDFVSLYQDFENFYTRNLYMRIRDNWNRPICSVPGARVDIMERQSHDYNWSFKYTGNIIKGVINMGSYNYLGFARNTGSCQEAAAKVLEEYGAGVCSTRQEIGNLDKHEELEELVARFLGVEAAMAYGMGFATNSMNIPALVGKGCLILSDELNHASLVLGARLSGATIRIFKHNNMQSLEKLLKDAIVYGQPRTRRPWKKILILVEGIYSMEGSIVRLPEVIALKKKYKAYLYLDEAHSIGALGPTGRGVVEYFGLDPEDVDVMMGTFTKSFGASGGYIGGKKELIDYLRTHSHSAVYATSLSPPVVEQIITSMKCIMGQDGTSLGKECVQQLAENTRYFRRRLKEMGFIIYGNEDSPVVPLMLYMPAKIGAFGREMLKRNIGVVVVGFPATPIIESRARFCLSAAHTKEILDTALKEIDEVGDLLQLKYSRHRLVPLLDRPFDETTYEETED
# UniProt O14562: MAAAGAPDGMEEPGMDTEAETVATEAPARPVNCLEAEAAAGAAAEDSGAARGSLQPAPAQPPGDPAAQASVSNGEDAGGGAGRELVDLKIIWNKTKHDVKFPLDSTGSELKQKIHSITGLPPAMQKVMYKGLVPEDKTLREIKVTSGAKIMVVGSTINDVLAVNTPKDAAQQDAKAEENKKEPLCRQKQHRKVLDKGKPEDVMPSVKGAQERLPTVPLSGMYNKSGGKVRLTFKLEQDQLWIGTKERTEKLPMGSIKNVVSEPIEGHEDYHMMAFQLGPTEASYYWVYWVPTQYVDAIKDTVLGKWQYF
# UniProt O43909: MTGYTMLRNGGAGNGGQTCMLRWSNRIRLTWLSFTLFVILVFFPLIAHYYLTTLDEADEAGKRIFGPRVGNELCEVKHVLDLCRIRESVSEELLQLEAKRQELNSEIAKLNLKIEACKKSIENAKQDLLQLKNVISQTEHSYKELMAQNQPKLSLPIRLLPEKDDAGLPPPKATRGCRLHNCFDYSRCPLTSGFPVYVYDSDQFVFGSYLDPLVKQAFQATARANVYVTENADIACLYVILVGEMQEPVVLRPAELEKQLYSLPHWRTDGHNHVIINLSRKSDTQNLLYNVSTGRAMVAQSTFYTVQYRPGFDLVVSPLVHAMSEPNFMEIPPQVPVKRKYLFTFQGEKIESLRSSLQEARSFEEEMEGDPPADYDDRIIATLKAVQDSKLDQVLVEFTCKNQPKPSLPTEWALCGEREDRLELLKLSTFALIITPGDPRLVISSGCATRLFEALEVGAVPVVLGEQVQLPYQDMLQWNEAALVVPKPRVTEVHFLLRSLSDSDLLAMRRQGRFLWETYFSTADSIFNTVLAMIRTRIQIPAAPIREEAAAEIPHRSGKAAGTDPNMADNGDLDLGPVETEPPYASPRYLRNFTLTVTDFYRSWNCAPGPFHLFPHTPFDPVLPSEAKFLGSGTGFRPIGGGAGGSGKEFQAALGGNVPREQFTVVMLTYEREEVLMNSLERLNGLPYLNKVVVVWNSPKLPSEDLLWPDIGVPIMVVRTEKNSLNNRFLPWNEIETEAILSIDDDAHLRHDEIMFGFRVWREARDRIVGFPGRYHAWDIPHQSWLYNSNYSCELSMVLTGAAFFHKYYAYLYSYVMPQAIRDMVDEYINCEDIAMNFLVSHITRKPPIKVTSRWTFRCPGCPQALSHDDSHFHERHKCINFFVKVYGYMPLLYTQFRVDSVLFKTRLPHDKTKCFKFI
# UniProt O15111: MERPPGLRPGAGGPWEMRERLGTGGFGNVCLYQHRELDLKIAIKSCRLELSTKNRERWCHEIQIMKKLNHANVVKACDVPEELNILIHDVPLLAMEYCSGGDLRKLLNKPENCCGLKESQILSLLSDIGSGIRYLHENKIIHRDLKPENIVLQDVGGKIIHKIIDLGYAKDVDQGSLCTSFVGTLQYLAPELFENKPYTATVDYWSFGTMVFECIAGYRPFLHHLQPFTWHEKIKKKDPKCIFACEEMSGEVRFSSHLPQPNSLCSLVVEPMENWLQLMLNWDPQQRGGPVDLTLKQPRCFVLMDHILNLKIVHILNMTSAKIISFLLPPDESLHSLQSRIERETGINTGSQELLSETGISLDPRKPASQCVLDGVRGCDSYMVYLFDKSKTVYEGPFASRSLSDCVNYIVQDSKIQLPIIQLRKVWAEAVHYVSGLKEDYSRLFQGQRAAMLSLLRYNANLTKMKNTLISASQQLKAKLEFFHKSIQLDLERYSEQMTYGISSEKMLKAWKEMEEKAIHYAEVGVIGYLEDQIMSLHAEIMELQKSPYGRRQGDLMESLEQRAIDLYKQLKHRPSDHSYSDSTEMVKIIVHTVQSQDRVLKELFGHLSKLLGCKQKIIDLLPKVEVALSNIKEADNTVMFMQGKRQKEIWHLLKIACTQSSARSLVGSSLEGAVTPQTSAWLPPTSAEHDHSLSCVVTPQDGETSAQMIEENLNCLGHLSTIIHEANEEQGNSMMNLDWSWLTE
# UniProt O14757: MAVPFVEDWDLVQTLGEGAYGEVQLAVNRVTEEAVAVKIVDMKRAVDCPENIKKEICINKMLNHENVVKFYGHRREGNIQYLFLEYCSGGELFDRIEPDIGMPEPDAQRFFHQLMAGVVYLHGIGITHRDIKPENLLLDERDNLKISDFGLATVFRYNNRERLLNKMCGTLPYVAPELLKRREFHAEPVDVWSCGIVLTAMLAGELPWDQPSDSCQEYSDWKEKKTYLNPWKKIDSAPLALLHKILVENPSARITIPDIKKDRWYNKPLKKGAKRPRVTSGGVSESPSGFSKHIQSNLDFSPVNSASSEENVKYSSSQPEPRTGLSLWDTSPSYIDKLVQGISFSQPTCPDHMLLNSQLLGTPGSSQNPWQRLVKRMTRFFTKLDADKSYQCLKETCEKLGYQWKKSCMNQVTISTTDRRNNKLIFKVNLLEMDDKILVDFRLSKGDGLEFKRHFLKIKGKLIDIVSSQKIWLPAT
# UniProt O43704: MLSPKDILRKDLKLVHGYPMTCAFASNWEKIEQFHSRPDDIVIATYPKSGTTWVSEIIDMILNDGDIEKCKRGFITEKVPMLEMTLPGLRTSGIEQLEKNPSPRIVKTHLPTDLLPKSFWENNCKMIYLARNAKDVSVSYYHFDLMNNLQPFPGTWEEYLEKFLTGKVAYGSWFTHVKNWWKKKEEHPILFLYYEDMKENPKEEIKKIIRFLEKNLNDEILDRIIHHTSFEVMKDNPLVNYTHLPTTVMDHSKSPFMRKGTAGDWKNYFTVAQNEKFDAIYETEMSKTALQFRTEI
# UniProt O00409: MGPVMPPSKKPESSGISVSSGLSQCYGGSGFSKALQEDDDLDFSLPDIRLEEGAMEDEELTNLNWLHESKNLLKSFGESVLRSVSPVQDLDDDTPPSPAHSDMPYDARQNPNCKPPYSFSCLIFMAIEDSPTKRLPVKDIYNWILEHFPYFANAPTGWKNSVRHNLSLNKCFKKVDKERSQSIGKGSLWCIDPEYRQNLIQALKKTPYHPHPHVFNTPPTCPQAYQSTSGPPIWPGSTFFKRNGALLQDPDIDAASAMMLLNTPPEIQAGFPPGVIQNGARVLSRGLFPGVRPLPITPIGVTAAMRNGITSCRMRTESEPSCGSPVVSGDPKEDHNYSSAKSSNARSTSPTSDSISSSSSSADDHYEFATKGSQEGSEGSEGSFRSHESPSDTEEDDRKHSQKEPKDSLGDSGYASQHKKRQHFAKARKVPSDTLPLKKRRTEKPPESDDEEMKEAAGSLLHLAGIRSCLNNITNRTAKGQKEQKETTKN
# UniProt O15118: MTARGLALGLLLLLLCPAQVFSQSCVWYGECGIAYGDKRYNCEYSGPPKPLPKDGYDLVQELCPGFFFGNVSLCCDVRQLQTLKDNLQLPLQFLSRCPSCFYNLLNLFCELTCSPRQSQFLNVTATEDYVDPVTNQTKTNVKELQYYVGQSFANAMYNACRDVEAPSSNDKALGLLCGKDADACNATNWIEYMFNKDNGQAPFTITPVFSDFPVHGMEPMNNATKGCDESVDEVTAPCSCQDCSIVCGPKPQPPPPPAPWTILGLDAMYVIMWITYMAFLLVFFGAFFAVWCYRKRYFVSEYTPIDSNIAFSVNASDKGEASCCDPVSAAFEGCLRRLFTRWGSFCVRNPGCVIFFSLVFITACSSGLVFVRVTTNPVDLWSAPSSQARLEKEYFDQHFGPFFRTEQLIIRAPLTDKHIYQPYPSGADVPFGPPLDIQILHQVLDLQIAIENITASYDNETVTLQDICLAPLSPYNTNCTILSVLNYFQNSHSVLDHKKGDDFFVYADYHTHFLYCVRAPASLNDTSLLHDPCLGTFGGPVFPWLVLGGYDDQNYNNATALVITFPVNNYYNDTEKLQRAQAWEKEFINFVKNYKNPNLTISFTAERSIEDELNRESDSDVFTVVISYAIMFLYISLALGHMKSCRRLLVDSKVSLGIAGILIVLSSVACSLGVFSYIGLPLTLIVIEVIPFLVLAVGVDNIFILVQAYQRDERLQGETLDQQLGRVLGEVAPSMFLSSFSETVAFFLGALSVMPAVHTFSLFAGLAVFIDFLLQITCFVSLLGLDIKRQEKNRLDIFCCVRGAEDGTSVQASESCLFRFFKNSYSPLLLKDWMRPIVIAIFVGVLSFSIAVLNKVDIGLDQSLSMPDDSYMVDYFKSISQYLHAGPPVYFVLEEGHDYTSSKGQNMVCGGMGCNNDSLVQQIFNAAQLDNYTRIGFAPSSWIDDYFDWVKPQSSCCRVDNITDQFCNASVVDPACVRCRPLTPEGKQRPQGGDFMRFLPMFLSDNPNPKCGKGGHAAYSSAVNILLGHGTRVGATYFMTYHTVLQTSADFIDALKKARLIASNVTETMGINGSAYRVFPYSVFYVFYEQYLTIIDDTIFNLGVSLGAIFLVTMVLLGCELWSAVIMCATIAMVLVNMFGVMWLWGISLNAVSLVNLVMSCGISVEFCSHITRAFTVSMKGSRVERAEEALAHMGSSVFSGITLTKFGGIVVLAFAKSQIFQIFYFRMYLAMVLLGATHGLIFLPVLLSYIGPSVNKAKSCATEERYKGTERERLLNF
# ± gives the standard deviation of the averaged measurements. The entries are a selection whose mix differs from that of the whole data set.
# Compound: Nc1ncnc2c1ncn2[C@@H]1O[C@H](COP(=O)(O)OP(=O)(O)OP(=O)(O)O)[C@@H](O)[C@H]1O [adenosine triphosphate]
# Assay: NP40-soluble protein abundance relative to vehicle (solubility fold change) (ratio); higher = more soluble protein in presence of ATP
# Outline: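 In three independent experiments, Jurkat crude lysate made by Dounce homogenisation was treated for 10 min at room temperature and then 3 min at 37 °C with eight concentrations ranging from 0.1 to 10 mM. It was then solubilised with 0.8% NP40 plus benzonase for 60 min at 4 °C and ultracentrifuged. The supernatant was TMT-labelled for LC-MS/MS, and each value is the fold change against the detergent-processed vehicle for the same replicate, using vsn-normalised intensities.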
target,measurement,setting,value
UniProt O15151 and related entries,NP40-soluble protein abundance,concentration: 1mM,1.15 ± 0.29
same,NP40-soluble protein abundance,concentration: 2mM,1.23 ± 0.28
same,NP40-soluble protein abundance,concentration: 4mM,1.06 ± 0.018
same,NP40-soluble protein abundance,concentration: 6mM,1.04 ± 0.035
same,NP40-soluble protein abundance,concentration: 8mM,1.16 ± 0.27
same,NP40-soluble protein abundance,concentration: 10mM,1.25 ± 0.23
UniProt O00231 and related entries,NP40-soluble protein abundance,concentration: 1mM,0.96 ± 0.04
same,NP40-soluble protein abundance,concentration: 2mM,0.912 ± 0.029
same,NP40-soluble protein abundance,concentration: 4mM,0.884 ± 0.029
same,NP40-soluble protein abundance,concentration: 6mM,0.914 ± 0.062
same,NP40-soluble protein abundance,concentration: 8mM,0.931 ± 0.031
same,NP40-soluble protein abundance,concentration: 10mM,0.874 ± 0.026
UniProt O14639 and related entries,NP40-soluble protein abundance,concentration: 1mM,1.09 ± 0.028
same,NP40-soluble protein abundance,concentration: 2mM,1.12 ± 0.017
same,NP40-soluble protein abundance,concentration: 4mM,1.11 ± 0.02
same,NP40-soluble protein abundance,concentration: 6mM,1.16 ± 0.064
same,NP40-soluble protein abundance,concentration: 8mM,1.15 ± 0.043
same,NP40-soluble protein abundance,concentration: 10mM,1.21 ± 0.043
UniProt O43164 and related entries,NP40-soluble protein abundance,concentration: 1mM,0.919 ± 0.057
same,NP40-soluble protein abundance,concentration: 2mM,0.955 ± 0.045
same,NP40-soluble protein abundance,concentration: 4mM,0.949 ± 0.068
same,NP40-soluble protein abundance,concentration: 6mM,0.951 ± 0.068
same,NP40-soluble protein abundance,concentration: 8mM,0.917 ± 0.05
same,NP40-soluble protein abundance,concentration: 10mM,0.995 ± 0.065
KPNA4 (UniProt O00629),NP40-soluble protein abundance,concentration: 1mM,1.05 ± 0.059
same,NP40-soluble protein abundance,concentration: 2mM,1.05 ± 0.049
same,NP40-soluble protein abundance,concentration: 4mM,1.04 ± 0.012
same,NP40-soluble protein abundance,concentration: 6mM,1.08 ± 0.02
same,NP40-soluble protein abundance,concentration: 8mM,1.05 ± 0.093
same,NP40-soluble protein abundance,concentration: 10mM,1.02 ± 0.039
UniProt O00308 and related entries,NP40-soluble protein abundance,concentration: 1mM,1.15 ± 0.3
same,NP40-soluble protein abundance,concentration: 2mM,1.36 ± 0.25
same,NP40-soluble protein abundance,concentration: 4mM,1.58 ± 0.35
same,NP40-soluble protein abundance,concentration: 6mM,1.61 ± 0.27
same,NP40-soluble protein abundance,concentration: 8mM,1.54 ± 0.47
same,NP40-soluble protein abundance,concentration: 10mM,1.6 ± 0.36
MCM3AP (UniProt O60318),NP40-soluble protein abundance,concentration: 1mM,1.07 ± 0.048
same,NP40-soluble protein abundance,concentration: 2mM,1.01 ± 0.22
same,NP40-soluble protein abundance,concentration: 4mM,1.01 ± 0.092
same,NP40-soluble protein abundance,concentration: 6mM,1.02 ± 0.18
same,NP40-soluble protein abundance,concentration: 8mM,1.01 ± 0.13
same,NP40-soluble protein abundance,concentration: 10mM,1.02 ± 0.13
SPTLC2 (UniProt O15270),NP40-soluble protein abundance,concentration: 1mM,1.02 ± 0.13
same,NP40-soluble protein abundance,concentration: 2mM,1.02 ± 0.099
same,NP40-soluble protein abundance,concentration: 4mM,0.983 ± 0.08
same,NP40-soluble protein abundance,concentration: 6mM,0.909 ± 0.11
same,NP40-soluble protein abundance,concentration: 8mM,1.03 ± 0.05
same,NP40-soluble protein abundance,concentration: 10mM,1.03 ± 0.061
TRAF5 (UniProt O00463),NP40-soluble protein abundance,concentration: 1mM,1.04 ± 0.072
same,NP40-soluble protein abundance,concentration: 2mM,1.05 ± 0.03
same,NP40-soluble protein abundance,concentration: 4mM,1.04 ± 0.06
same,NP40-soluble protein abundance,concentration: 6mM,1.05 ± 0.066
same,NP40-soluble protein abundance,concentration: 8mM,1.03 ± 0.041
same,NP40-soluble protein abundance,concentration: 10mM,1.02 ± 0.063
UniProt O14828 and related entries,NP40-soluble protein abundance,concentration: 1mM,0.944 ± 0.024
same,NP40-soluble protein abundance,concentration: 2mM,0.948 ± 0.02
same,NP40-soluble protein abundance,concentration: 4mM,0.923 ± 0.049
same,NP40-soluble protein abundance,concentration: 6mM,0.963 ± 0.033
same,NP40-soluble protein abundance,concentration: 8mM,0.917 ± 0.037
same,NP40-soluble protein abundance,concentration: 10mM,0.917 ± 0.032
UniProt O43852 and related entries,NP40-soluble protein abundance,concentration: 1mM,0.965 ± 0.045
same,NP40-soluble protein abundance,concentration: 2mM,0.9613 ± 0.0089
same,NP40-soluble protein abundance,concentration: 4mM,0.94 ± 0.01
same,NP40-soluble protein abundance,concentration: 6mM,0.965 ± 0.014
same,NP40-soluble protein abundance,concentration: 8mM,0.934 ± 0.019
same,NP40-soluble protein abundance,concentration: 10mM,0.897 ± 0.047
UniProt O60231 and related entries,NP40-soluble protein abundance,concentration: 1mM,1.09 ± 0.029
same,NP40-soluble protein abundance,concentration: 2mM,1.09 ± 0.049
same,NP40-soluble protein abundance,concentration: 4mM,1.07 ± 0.043
same,NP40-soluble protein abundance,concentration: 6mM,1.04 ± 0.041
same,NP40-soluble protein abundance,concentration: 8mM,1.09 ± 0.041
same,NP40-soluble protein abundance,concentration: 10mM,1.07 ± 0.046
TOR1B (UniProt O14657),NP40-soluble protein abundance,concentration: 1mM,0.96 ± 0.036
same,NP40-soluble protein abundance,concentration: 2mM,0.954 ± 0.02
same,NP40-soluble protein abundance,concentration: 4mM,0.935 ± 0.044
same,NP40-soluble protein abundance,concentration: 6mM,0.885 ± 0.055
same,NP40-soluble protein abundance,concentration: 8mM,0.8724 ± 0.0086
same,NP40-soluble protein abundance,concentration: 10mM,0.947 ± 0.026
UBFD1 (UniProt O14562),NP40-soluble protein abundance,concentration: 1mM,0.963 ± 0.068
same,NP40-soluble protein abundance,concentration: 2mM,0.943 ± 0.08
same,NP40-soluble protein abundance,concentration: 4mM,0.931 ± 0.049
same,NP40-soluble protein abundance,concentration: 6mM,0.96 ± 0.049
same,NP40-soluble protein abundance,concentration: 8mM,0.926 ± 0.041
same,NP40-soluble protein abundance,concentration: 10mM,0.9 ± 0.018
GTPBP1 (UniProt O00178),NP40-soluble protein abundance,concentration: 1mM,1.06 ± 0.035
same,NP40-soluble protein abundance,concentration: 2mM,1.06 ± 0.019
same,NP40-soluble protein abundance,concentration: 4mM,1.06 ± 0.032
same,NP40-soluble protein abundance,concentration: 6mM,1.03 ± 0.047
same,NP40-soluble protein abundance,concentration: 8mM,1.06 ± 0.018
same,NP40-soluble protein abundance,concentration: 10mM,1.05 ± 0.041
UniProt O43822 and related entries,NP40-soluble protein abundance,concentration: 1mM,1.03 ± 0.021
same,NP40-soluble protein abundance,concentration: 2mM,1.02 ± 0.046
same,NP40-soluble protein abundance,concentration: 4mM,1.02 ± 0.07
same,NP40-soluble protein abundance,concentration: 6mM,1.02 ± 0.078
same,NP40-soluble protein abundance,concentration: 8mM,1.03 ± 0.067
same,NP40-soluble protein abundance,concentration: 10mM,1.03 ± 0.044
EXTL3 (UniProt O43909),NP40-soluble protein abundance,concentration: 1mM,0.93 ± 0.11
same,NP40-soluble protein abundance,concentration: 2mM,0.994 ± 0.091
same,NP40-soluble protein abundance,concentration: 4mM,0.984 ± 0.14
same,NP40-soluble protein abundance,concentration: 6mM,1.03 ± 0.053
same,NP40-soluble protein abundance,concentration: 8mM,1.05 ± 0.11
same,NP40-soluble protein abundance,concentration: 10mM,1.11 ± 0.094
UniProt O15111,NP40-soluble protein abundance,concentration: 1mM,1.04 ± 0.097
same,NP40-soluble protein abundance,concentration: 2mM,1.04 ± 0.079
same,NP40-soluble protein abundance,concentration: 4mM,1.04 ± 0.091
same,NP40-soluble protein abundance,concentration: 6mM,0.924 ± 0.11
same,NP40-soluble protein abundance,concentration: 8mM,1.02 ± 0.052
same,NP40-soluble protein abundance,concentration: 10mM,1.05 ± 0.059
UniProt O14757,NP40-soluble protein abundance,concentration: 1mM,0.997 ± 0.056
same,NP40-soluble protein abundance,concentration: 2mM,0.983 ± 0.044
same,NP40-soluble protein abundance,concentration: 4mM,0.983 ± 0.027
same,NP40-soluble protein abundance,concentration: 6mM,0.929 ± 0.077
same,NP40-soluble protein abundance,concentration: 8mM,0.973 ± 0.031
same,NP40-soluble protein abundance,concentration: 10mM,0.981 ± 0.074
PSMD9 (UniProt O00233),NP40-soluble protein abundance,concentration: 1mM,0.955 ± 0.044
same,NP40-soluble protein abundance,concentration: 2mM,0.921 ± 0.031
same,NP40-soluble protein abundance,concentration: 4mM,0.875 ± 0.024
same,NP40-soluble protein abundance,concentration: 6mM,0.954 ± 0.034
same,NP40-soluble protein abundance,concentration: 8mM,0.893 ± 0.013
same,NP40-soluble protein abundance,concentration: 10mM,0.893 ± 0.046
UniProt O43704,NP40-soluble protein abundance,concentration: 1mM,0.936 ± 0.014
same,NP40-soluble protein abundance,concentration: 2mM,0.9594 ± 0.0053
same,NP40-soluble protein abundance,concentration: 4mM,0.981 ± 0.017
same,NP40-soluble protein abundance,concentration: 6mM,0.9293 ± 0.0054
same,NP40-soluble protein abundance,concentration: 8mM,0.946 ± 0.06
same,NP40-soluble protein abundance,concentration: 10mM,0.922 ± 0.059
UniProt O00154-4|O00154-5,NP40-soluble protein abundance,concentration: 1mM,0.981 ± 0.056
same,NP40-soluble protein abundance,concentration: 2mM,1.01 ± 0.035
same,NP40-soluble protein abundance,concentration: 4mM,1.02 ± 0.07
same,NP40-soluble protein abundance,concentration: 6mM,0.989 ± 0.037
same,NP40-soluble protein abundance,concentration: 8mM,0.92 ± 0.031
same,NP40-soluble protein abundance,concentration: 10mM,0.982 ± 0.041
UniProt O00409 and related entries,NP40-soluble protein abundance,concentration: 1mM,1.05 ± 0.058
same,NP40-soluble protein abundance,concentration: 2mM,1.01 ± 0.15
same,NP40-soluble protein abundance,concentration: 4mM,0.995 ± 0.087
same,NP40-soluble protein abundance,concentration: 6mM,1.06 ± 0.15
same,NP40-soluble protein abundance,concentration: 8mM,0.949 ± 0.1
same,NP40-soluble protein abundance,concentration: 10mM,1.01 ± 0.18
STRN (UniProt O43815),NP40-soluble protein abundance,concentration: 1mM,1.02 ± 0.031
same,NP40-soluble protein abundance,concentration: 2mM,0.986 ± 0.019
same,NP40-soluble protein abundance,concentration: 4mM,1 ± 0.038
same,NP40-soluble protein abundance,concentration: 6mM,1.02 ± 0.1
same,NP40-soluble protein abundance,concentration: 8mM,1.01 ± 0.037
same,NP40-soluble protein abundance,concentration: 10mM,1.03 ± 0.074
PSMD3 (UniProt O43242),NP40-soluble protein abundance,concentration: 1mM,0.923 ± 0.068
same,NP40-soluble protein abundance,concentration: 2mM,0.874 ± 0.033
same,NP40-soluble protein abundance,concentration: 4mM,0.858 ± 0.03
same,NP40-soluble protein abundance,concentration: 6mM,0.815 ± 0.017
same,NP40-soluble protein abundance,concentration: 8mM,0.883 ± 0.037
same,NP40-soluble protein abundance,concentration: 10mM,0.857 ± 0.048
NPC1 (UniProt O15118),NP40-soluble protein abundance,concentration: 1mM,0.988 ± 0.036
same,NP40-soluble protein abundance,concentration: 2mM,1.01 ± 0.043
same,NP40-soluble protein abundance,concentration: 4mM,0.988 ± 0.023
same,NP40-soluble protein abundance,concentration: 6mM,0.947 ± 0.049
same,NP40-soluble protein abundance,concentration: 8mM,0.9529 ± 0.0063
same,NP40-soluble protein abundance,concentration: 10mM,0.926 ± 0.072

# Given with tabs: entries from further up
target	measurement	setting	value
NPC1 (UniProt O15118)	NP40-soluble protein abundance	concentration: 1mM	0.988 ± 0.036
same	NP40-soluble protein abundance	concentration: 2mM	1.01 ± 0.043

# Fetched one by one from the entries so far, 4 records:
target,measurement,setting,value
PSMD3 (UniProt O43242),NP40-soluble protein abundance,concentration: 6mM,0.815 ± 0.017
UniProt O15151 and related entries,NP40-soluble protein abundance,concentration: 6mM,1.04 ± 0.035
TOR1B (UniProt O14657),NP40-soluble protein abundance,concentration: 1mM,0.96 ± 0.036
UniProt O14757,NP40-soluble protein abundance,concentration: 10mM,0.981 ± 0.074

# Two successive entries from above, for reference:
target,measurement,setting,value
NPC1 (UniProt O15118),NP40-soluble protein abundance,concentration: 4mM,0.988 ± 0.023
same,NP40-soluble protein abundance,concentration: 6mM,0.947 ± 0.049
